In the supplement of paper PMC10735217:
Several values for one entry are separate records, joined by “and”; a condition that tells them apart may be missing. Identical values can stand only once. Counter-ions that a name gives are not always drawn. The list shows a part of the results. Single values are uncertain here, since repeats match poorly.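 The human kidney-derived cells carry a stably integrated construct of eight TEAD-binding elements driving luciferase, read by luminescence in a drug-repurposing library screen. A compound counts as a hit when its signal is more than five robust Z scores above the plate mean.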

System: HEK293A TEAD-LUC reporter
Assay: TEAD-luciferase reporter activity (YAP activation), robust Z score vs plate; higher = stronger YAP/TEAD activation
Conditions: 24 h

Row | SMILES | TEAD-luciferase reporter activity (compound concentration: 200 nM) | TEAD-luciferase reporter activity (compound concentration: 2 uM) | TEAD-luciferase reporter activity (compound concentration: 10 uM)
1 | CCCOCCOC(=O)C1=C(C)NC(C)=C(C(=O)OCCOCCC)C1c1cccc([N+](=O)[O-])c1 | inactive: 0.11 | inactive: -1.49 | inactive: -1.45
2 | CS(=O)(=O)c1ccc(-n2cc(Cl)c(OC3CCN(c4ncc(Cl)cn4)CC3)cc2=O)c(F)c1 | inactive: -0.696 | inactive: -1.4 | inactive: -0.747
3 | Cc1ccc2c(c1)C=Cc1cc(C)ccc1C2c1cn(Cc2ccc(C(=O)Nc3nnn[nH]3)o2)c(=O)[nH]c1=S | inactive: 0.119 | inactive: -0.0832 | inactive: 0.664
4 | O=C(c1ccc(Cl)cc1)N1CCC(N2CCCC2)CC1 | inactive: 3.36 |  | inactive: 4.91
5 | CC(C)OC(=O)[C@H](C)N[P@](=O)(OC[C@H]1O[C@@H](n2ccc(=O)[nH]c2=O)[C@](C)(Cl)[C@@H]1O)Oc1ccccc1 [Sofosbuvir impurity K] | inactive: -0.888 | inactive: -1.29 | inactive: 1.56
6 | OCCOCCN1CCN(C(c2ccccc2)c2ccc(Cl)cc2)CC1 (stereo unspecified) [Hydroxyzine hydrochloride] |  | inactive: -1.64 | 
7 | OCCOCCN1CCN(C(c2ccccc2)c2ccc(Cl)cc2)CC1 (stereo unspecified) | inactive: -1.6 |  | inactive: 0.97
8 | O=C(O)CCc1cc(C(=O)c2ccc(OC3CCCC3)cc2O)ccc1OCc1ccc2c(O)noc2c1 | inactive: -1.69 | inactive: -1.6 | inactive: 2.57
9 | CC(C)CN(C[C@@H](O)[C@H](Cc1ccccc1)NC(=O)[C@@H](NC(=O)CNCc1cccc(F)c1)C(C)(C)C)S(=O)(=O)c1ccc(N)cc1 | inactive: 0.379 | inactive: -0.955 | inactive: -1.6
10 | C[C@H]1COC2(CCN(c3nc(=O)c4cc(C(F)(F)F)cc([N+](=O)[O-])c4s3)CC2)O1 |  | inactive: -1.5 and inactive: -1.68 | 
11 | C[C@H]1COC2(CCN(c3nc(=O)c4cc(C(F)(F)F)cc([N+](=O)[O-])c4s3)CC2)O1 [Stuart Cole cmpd] | inactive: -1.78 |  | inactive: -1.44
12 | Clc1ccc(Cn2c(CN3CCCC3)nc3ccccc32)cc1 | inactive: -0.934 |  | inactive: 3.46
13 | COC(=O)Cn1c(-c2cccc(Cl)c2)nc2ccc(OCCCN3CCCCC3)cc2c1=O | inactive: -2.06 | inactive: -0.588 | inactive: 0.765
14 | COc1cc2nc(N3CCN(C(=O)C4CCCCC4)CC3)nc(N)c2cc1OC | inactive: 0.151 | inactive: 0.49 | inactive: 0.949
15 | NC(=O)Cc1cccc(C(=O)c2ccccc2)c1N [Nepafenac] | inactive: -1.87 | inactive: -1.28 | inactive: -0.15
16 | Cc1[nH]c2ccc(F)cc2c1-c1nc2c3cccnc3c3ncccc3c2[nH]1 | inactive: -2.33 | inactive: -1.96 | inactive: -0.86
17 | Cc1ccc(C)c(Cn2cc(CCNc3ncnc4c3ncn4[C@@H]3O[C@H](C(=O)NC4CC4)[C@@H](O)[C@H]3O)c3cc(C)ccc32)c1 | inactive: -0.896 | inactive: -0.403 | inactive: 1.33
18 | CCNC(=O)N1CCN(CCCC(c2ccc(F)cc2)c2ccc(F)cc2)CC1 [Amperozide] | inactive: 0.227 | inactive: 2.1 | inactive: -1.12
19 | CC1/C=C/C=C\C=C\C=C\C=C\C=C\C=C\C(OC2OC(C)C(O)C(N)C2O)CC2OC(O)(CC(O)CC(O)C(O)CCC(O)CC(O)CC(=O)OC(C)C(C)C1O)CC(O)C2C(=O)O (stereo unspecified) [amphotericin-B] | inactive: 1.08 | inactive: 0.316 | inactive: -0.828
20 | CCSCC(=O)C12OC(C)(C)O[C@@H]1C[C@H]1[C@@H]3C[C@H](F)C4=CC(=O)C=CC4(C)[C@@]3(F)[C@@H](O)CC12C (stereo partly specified) | inactive: -1.57 | active: 5.27 | inactive: 0.7
21 | Oc1c(I)cc(I)c2cccnc12 [Iodoquinol] | inactive: -0.677 | inactive: -1.92 | inactive: 1.87
22 | CCC(C)n1ncn(-c2ccc(N3CCN(c4ccc(OC[C@@H]5CO[C@@](Cn6cncn6)(c6ccc(Cl)cc6Cl)O5)cc4)CC3)cc2)c1=O (stereo partly specified) [itraconazole] |  | inactive: -1.2 | 
23 | CCC(C)n1ncn(-c2ccc(N3CCN(c4ccc(OC[C@@H]5CO[C@@](Cn6cncn6)(c6ccc(Cl)cc6Cl)O5)cc4)CC3)cc2)c1=O (stereo partly specified) [Sporanox (Itraconazole)] | inactive: -1.68 |  | inactive: -0.235
24 | CCOC(=O)[C@@H]1CSC(c2ccc(OC)c(OC)c2)N1 (stereo partly specified) | inactive: -0.757 | inactive: 0.185 | inactive: -0.584
25 | C[C@]12CC[C@H](O)CC1=CC[C@@H]1[C@@H]2CC[C@]2(C)C(c3cccnc3)=CC[C@@H]12 [Pharmaprojects No. 4598] | inactive: -0.425 | inactive: 4.36 | inactive: 1.11
26 | O=C(c1ccc(F)cc1)N1CCC(C(=O)N2CCC(N3Cc4ccccc4C3=O)CC2)CC1 | inactive: 0.202 |  | inactive: 0.849
